Measured values taken from PubChem BioAssay AID1347426 (Functional Genomics Laboratory (NCATS/FGL), 2020).
Out of some 31,000 sequences screened, about 1,400 (4.5%) were called active.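 The calls were made as follows: active = median seed-adjusted z-score above 1 or below -1; inactive = the rest.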 This is one part of the list.

Assay: Novel Modifiers of Survival Motor Neuron (SMN) Protein: Gene Identification via Genome-wide siRNA Screen;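 also: luminescence tracks full-length SMN protein made from the SMN2 reporter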
Conditions: HEK293T SMN2-luciferase reporter, siRNA knockdown, 72 h; actives lie on both sides
In short: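 Steps: spot 1 pmol siRNA, add Lipofectamine RNAiMax in serum-free DMEM, seed HEK293T SMN2–luciferase reporter cells; incubate 72 h at 37 °C; add ONE-Glo; normalize luminescence to control siRNA, log10, MAD. Candidates: |MAD| > 1.0.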

Row | Sequence | median seed-adjusted z-score
1 | GUGAUAUCAUUGAGCCUAATT against PPARD | inactive: 0.0283
2 | GGCUGACACUCACGAUGAATT against SERPINA1 | inactive: 0.00292
3 | CAAUGAAGACUGAUGUAUUTT against SLC9A2 | active: -1.02
4 | CACCAGCUUCGGACCAUGATT against LHX2 | inactive: 0.464
5 | GGAUACUCCCUGCAUGAUATT against GPR34 | inactive: 0.529
6 | GCAACAACGUGUCCUUCGATT against GPR132 | inactive: 0
7 | AGAAAAUUACCAUGCAGAATT against KRT15 | inactive: 0.756
8 | GCAUCUUUUGGAGAUCGAATT against TC2N | inactive: 0.461
9 | CGGAUACGCUAAAAAUCAATT against B3GNTL1 | inactive: 0
10 | GGUCUAGCCUGGGUAUGAATT against PLA2G2F | inactive: 0.508
11 | GACACUUGCUUAGAAGUAATT against LRP12 | inactive: 0.416
12 | GUCCAGAUCUUAUUACCUATT against ABLIM1 | inactive: 0.115
13 | GGACAAUGAUGGGUUCCCATT against ITGA9 | inactive: 0
14 | GGAUCUGGUUCAACUUGGATT against FUT3 | inactive: 0.11
15 | AGCUAGCUACGAAUCCAAATT against FOXRED2 | inactive: 0.0294
16 | CGUGCUCAACAGCAAAGAATT against PIGL | inactive: 0.827
17 | CUUUAAAGAUUGGAAUAAUTT against LOC730394 | inactive: -0.226
18 | GAUCUUCACUAAUCGAAGATT against VLDLR | inactive: 0.0487
19 | CACAAUGUCUUCAACCUGATT against AMIGO1 | inactive: 0.175
20 | GGCUUAUGGAGAUAUGAAUTT against PPFIA2 | inactive: 0.176
21 | GCAGUAAGCCCAGAUAGCATT against ZNF808 | inactive: 0.138
22 | GAACUUUCCUGUUACCUUUTT against CD81 | inactive: 0

Row | Sequence | median seed-adjusted z-score
23 | GCUCAUCGCUCACAACCAATT against ERBB2 | inactive: 0.158
24 | CCGGUCAAGUGAACAAGUUTT against TTLL11 | inactive: 0.00825
25 | GUUCAACACUUCAAGGUCATT against GRAP2 | inactive: 0.296
26 | GCACAAGACCAGUUGCACATT against BBS4 | inactive: -0.0339
27 | GGACUUUGAUGAGUGCUAUTT against ACPP | inactive: 0.311
28 | GGGCUGCACCAAAGCCUAUTT against KLF14 | inactive: 0.0241
29 | GUAUGAUUGGAACUGCUGATT against HIBADH | inactive: 0.234
30 | CACAUGCAAUGUAAUCUUATT against SNX19 | inactive: 0.67
31 | CCAUCGCAGUAUAUGAGGATT against SORCS1 | inactive: -0.123
32 | CCUCAAUGAUGAGCGGGUATT against CST2 | inactive: -0.411
33 | CUACUACAGUGACACGAAATT against ROS1 | inactive: -0.0561
34 | CGACAAUGUUAAGUUCAUATT against SULT6B1 | inactive: 0
35 | GACUGAGAGUUCAACCGAATT against MATR3 | inactive: -0.259
36 | GAAUACGCCUUGAUAUUCATT against PIGR | inactive: -0.35
37 | GGAUGAAGCUCUGAGCUAUTT against ALG5 | inactive: 0.286
38 | GAGUGAAACAGGAUAAGAUTT against ST3GAL1 | inactive: 0.255
39 | GGACAACAGUCGGUCGAAUTT against ANP32C | inactive: -0.421
40 | CACGUGCUCUCUACGGUUATT against GPR116 | inactive: 0
41 | GCGAAUUCAUAAGUCCAUUTT against MTMR9 | inactive: 0.133
42 | GCACCAAUUCUAUAGGCAUTT against PTPRA | inactive: -0.438
43 | CUCCAGGAGUGAUCCAAAATT against FOXN3 | inactive: -0.636
44 | GCACCAUAGAUGUUAAAGATT against CETN2 | inactive: -0.0139

Row | Sequence | median seed-adjusted z-score
45 | CAGCGGCUACGAGUACUAATT against TCEB3 | inactive: 0.232
46 | CCCUAGAACUGGAUCAUAATT against DNAJC7 | inactive: 0.268
47 | GGGAUGAUUCAGACAAACATT against ZC3HAV1 | inactive: 0.522
48 | GCUUAAGACGAAGCAAAAATT against KIF22 | inactive: 0.283
49 | CAAAUGUUGUGAAGAAGUATT against GNGT1 | inactive: -0.0382
50 | GCUUGUUGAUGGACAAGAATT against UBA3 | inactive: 0.605
51 | GUAGCAUACCCAUCUAUAATT against NAB1 | inactive: -0.67
52 | GGCUAAUCCUUUUCGAAUATT against DGKE | inactive: -0.0589
53 | GGAAGUGAACUUUACAUCUTT against TPX2 | inactive: -0.564
54 | GCGACUCGGUAGUCCAUUATT against EGR3 | inactive: -0.232
55 | GGUUAAUAGGUCAAAUUGUTT against TUBA1A | inactive: 0.284
56 | GGGUGAAAAAGAUCCGUGATT against PLCG1 | inactive: -0.336
57 | GAAUUGACUUCUUGUCUAATT against RAB41 | inactive: -0.534
58 | GGAUCCUCGAUACAGCACATT against MIOX | inactive: 0.14
59 | GUAUGGACCUCAUUCCGUUTT against LMLN | inactive: 0
60 | CCAUGUCACCGGCAAGUGUTT against SCARF2 | inactive: 0
61 | CACCGACAAUAUAAAGGAATT against SLC25A32 | inactive: -0.299
62 | GGGUCACAACCAAAUCAAATT against ZYX | inactive: 0.273
63 | CGCUGUCCAGAAAAACGGATT against DMRT3 | inactive: 0
64 | CGACCCAAAUUUGACAUGATT against ILK | inactive: -0.231
65 | CAGUUACUCUAACGUAUAATT against SI | inactive: 0
66 | GGACCUAUCUAGGACAUCUTT against GPR64 | inactive: 0.527

Reprinted at random: 6 records from the list.
Row | Sequence | median seed-adjusted z-score
62 | GGGUCACAACCAAAUCAAATT against ZYX | inactive: 0.273
65 | CAGUUACUCUAACGUAUAATT against SI | inactive: 0
63 | CGCUGUCCAGAAAAACGGATT against DMRT3 | inactive: 0
55 | GGUUAAUAGGUCAAAUUGUTT against TUBA1A | inactive: 0.284
64 | CGACCCAAAUUUGACAUGATT against ILK | inactive: -0.231
54 | GCGACUCGGUAGUCCAUUATT against EGR3 | inactive: -0.232

Additional results follow.

Row | Sequence | median seed-adjusted z-score
67 | GGAAAUGACAAAUCUAACATT against AVIL | inactive: -0.127
68 | GAAGGUUCAUGAAUCUCAATT against ZIC3 | inactive: -0.183
69 | GGUUAGAAGUCAUUGUAUATT against NEUROG2 | inactive: -0.366
70 | CCAUUUGACCAACCAAUGATT against PCTK2 | inactive: -0.497
71 | CAGCUAGCUUGAAUGCUAATT against RNF130 | inactive: -0.21
72 | CUAUCGGAUCCAAACCUAUTT against PARN | inactive: -0.0061
73 | AGGACAUCUUCGUACAUGUTT against CSDC2 | inactive: -0.321
74 | AUGCCAAGCUGGCCUCAGATT against KRT33A | inactive: -0.107
75 | UGAGAAUAGUUACAGCAAATT against NRCAM | inactive: -0.0304
76 | GCCUUAUGUUGAUAUACUUTT against ADK | inactive: 0.198
77 | GAACACUCUAUGUCUAAUATT against MYNN | inactive: 0.0702
78 | GGCCUUUGUUCGCAGCUAUTT against ZNF404 | inactive: 0.574
79 | GGACUUUGCUGCUGAGGUUTT against YARS | inactive: 0.0197
80 | CGGCUAUUUGCAAAGCAGATT against SRD5A1 | inactive: 0.0945
81 | GGACGAUGUCUACAGCCUATT against SIN3B | inactive: 0.509
82 | CCUAAUACAUGCGAAGUGATT against HS3ST5 | inactive: -0.725
83 | GCAGUCCCAUGAUCACCAUTT against BEST1 | inactive: -0.322
84 | GCUGCUCUACGAAGACAUUTT against GPR175 | inactive: 0.245
85 | GAGUCACAAUCGCAUGAAATT against FKBP9 | inactive: 0.359
86 | GGAAUAACCUCUUGCAGCATT against HAS1 | inactive: -0.416
87 | CGUAUAGUCAAAGCUCAAATT against ZNF24 | inactive: 0.388
88 | GCAUAGACUUGAAGGUACATT against SPINT1 | inactive: 0.0172

Row | Sequence | median seed-adjusted z-score
89 | GGACAGCAAAGACCGCGUATT against BAHCC1 | inactive: 0
90 | AGUGUCUACUGUGAGAAUATT against TRAF4 | active: -1.16
91 | GAGUUCUGCCCGUUCCACATT against GNPTG | inactive: -0.401
92 | GGACUUUCUGGAUAUCAAUTT against ATP6V1B1 | inactive: 0.38
93 | CUCCAAGGCCGACUCCUAATT against B3GAT1 | inactive: 0.503
94 | GGACUCUUGUUAACAGUAATT against S100B | inactive: 0.862
95 | GGGUACACGUGAGAACUCATT against ZNF177 | inactive: 0.363
96 | GGGCAUUUGGUGAAGAUCATT against MYLK2 | inactive: -0.0498
97 | CACGCUCCAUCGCUCAGUATT against VTN | inactive: -0.435
98 | GGCUGAUGUAAUCUCUAAATT against SLC9A8 | inactive: 0.367
99 | GGCUACAAAUGUUCAUCGATT against LRP6 | inactive: -0.116
100 | CACUAAGAGAAAAUCUGAATT against GALNT13 | inactive: -0.0149
101 | CUGUUUACAUGACCUAUUUTT against MAFG | inactive: 0
102 | GCAUGUUGAUUCUCGGCGATT against TDRD9 | inactive: 0.0754
103 | CAACAAGUGUCUAAAUGUUTT against GNG11 | inactive: 0.00609
104 | GAAUCUCUAUACAAAUGAATT against CSNK1G2 | inactive: 0.511
105 | GGACAGCUAUGACUCGGAUTT against DOC2A | inactive: 0.299
106 | AGAGAGAUUACGAACUGAATT against FLOT1 | inactive: -0.685
107 | CAGUAAGUCUAAUCUCAUUTT against ZNF671 | inactive: -0.0551
108 | CUAUGUUCGAUUUAUUGAATT against ADSS | inactive: -0.272
